# From the supplement of paper PMC10849652
# Sequences of proteins named here, by UniProt entry; tags and fusion partners are left off. A change or cut given only in a name is not applied to a line headed by its entry.
# UniProt Q5JPI3: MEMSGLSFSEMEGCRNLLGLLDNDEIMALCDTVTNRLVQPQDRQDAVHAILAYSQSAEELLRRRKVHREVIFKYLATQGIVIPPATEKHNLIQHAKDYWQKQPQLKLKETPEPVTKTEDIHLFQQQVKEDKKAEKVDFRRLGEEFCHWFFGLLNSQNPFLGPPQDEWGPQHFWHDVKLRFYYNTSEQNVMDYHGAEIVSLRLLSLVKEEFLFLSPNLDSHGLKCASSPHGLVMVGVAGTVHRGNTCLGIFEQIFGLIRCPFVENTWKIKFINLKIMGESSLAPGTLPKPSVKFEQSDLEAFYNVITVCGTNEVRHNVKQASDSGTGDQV
# UniProt Q9H3J6: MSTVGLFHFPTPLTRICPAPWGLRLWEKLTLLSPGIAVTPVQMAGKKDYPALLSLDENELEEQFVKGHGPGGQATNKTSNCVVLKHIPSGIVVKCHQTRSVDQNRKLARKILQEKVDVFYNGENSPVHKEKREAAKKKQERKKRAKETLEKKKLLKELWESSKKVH
# UniProt Q8N1Q1: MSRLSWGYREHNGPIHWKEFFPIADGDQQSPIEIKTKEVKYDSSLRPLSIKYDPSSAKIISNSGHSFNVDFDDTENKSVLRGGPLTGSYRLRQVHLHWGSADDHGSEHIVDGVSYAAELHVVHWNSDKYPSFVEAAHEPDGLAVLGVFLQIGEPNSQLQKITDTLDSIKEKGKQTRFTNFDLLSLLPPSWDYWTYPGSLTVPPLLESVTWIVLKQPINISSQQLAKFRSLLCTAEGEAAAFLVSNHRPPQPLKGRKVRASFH
# UniProt Q5T5Y3: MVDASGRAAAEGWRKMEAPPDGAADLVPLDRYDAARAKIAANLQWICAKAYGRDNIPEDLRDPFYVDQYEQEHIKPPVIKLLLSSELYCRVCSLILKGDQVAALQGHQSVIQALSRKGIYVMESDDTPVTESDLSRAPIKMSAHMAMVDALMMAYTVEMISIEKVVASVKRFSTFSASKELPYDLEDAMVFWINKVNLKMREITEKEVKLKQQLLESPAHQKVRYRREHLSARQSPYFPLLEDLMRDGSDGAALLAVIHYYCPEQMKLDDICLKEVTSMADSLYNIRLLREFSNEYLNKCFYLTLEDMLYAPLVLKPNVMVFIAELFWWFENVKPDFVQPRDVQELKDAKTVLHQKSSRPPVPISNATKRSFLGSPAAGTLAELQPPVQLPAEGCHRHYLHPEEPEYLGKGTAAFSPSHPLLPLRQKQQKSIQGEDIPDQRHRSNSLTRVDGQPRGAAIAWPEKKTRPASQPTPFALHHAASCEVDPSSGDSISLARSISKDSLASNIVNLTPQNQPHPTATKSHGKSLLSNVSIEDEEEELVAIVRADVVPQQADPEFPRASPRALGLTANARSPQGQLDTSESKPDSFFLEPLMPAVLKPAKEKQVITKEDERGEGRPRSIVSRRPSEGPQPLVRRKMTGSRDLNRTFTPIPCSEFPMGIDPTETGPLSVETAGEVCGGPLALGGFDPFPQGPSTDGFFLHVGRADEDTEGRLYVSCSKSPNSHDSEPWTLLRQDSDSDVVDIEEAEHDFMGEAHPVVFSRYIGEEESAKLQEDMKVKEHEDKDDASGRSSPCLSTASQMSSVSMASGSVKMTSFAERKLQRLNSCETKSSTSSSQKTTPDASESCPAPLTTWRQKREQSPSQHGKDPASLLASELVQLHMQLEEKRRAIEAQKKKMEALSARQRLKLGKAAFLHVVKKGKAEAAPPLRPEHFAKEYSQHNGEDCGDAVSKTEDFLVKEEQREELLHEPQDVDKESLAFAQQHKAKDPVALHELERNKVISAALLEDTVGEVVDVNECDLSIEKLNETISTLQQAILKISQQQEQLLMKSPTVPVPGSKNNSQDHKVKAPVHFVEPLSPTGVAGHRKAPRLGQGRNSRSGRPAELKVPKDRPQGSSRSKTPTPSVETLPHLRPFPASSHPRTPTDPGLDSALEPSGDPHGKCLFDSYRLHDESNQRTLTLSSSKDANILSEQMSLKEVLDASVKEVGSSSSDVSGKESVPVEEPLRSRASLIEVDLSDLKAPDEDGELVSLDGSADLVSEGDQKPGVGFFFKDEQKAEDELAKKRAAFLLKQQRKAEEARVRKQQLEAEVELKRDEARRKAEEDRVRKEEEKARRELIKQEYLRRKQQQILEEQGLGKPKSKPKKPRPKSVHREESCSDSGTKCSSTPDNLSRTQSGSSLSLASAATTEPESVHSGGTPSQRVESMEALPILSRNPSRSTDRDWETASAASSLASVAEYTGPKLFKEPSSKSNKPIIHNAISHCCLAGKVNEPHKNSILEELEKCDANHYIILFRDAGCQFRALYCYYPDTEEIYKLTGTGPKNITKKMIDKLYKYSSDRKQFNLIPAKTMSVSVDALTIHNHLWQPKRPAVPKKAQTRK
# UniProt Q9H7E9: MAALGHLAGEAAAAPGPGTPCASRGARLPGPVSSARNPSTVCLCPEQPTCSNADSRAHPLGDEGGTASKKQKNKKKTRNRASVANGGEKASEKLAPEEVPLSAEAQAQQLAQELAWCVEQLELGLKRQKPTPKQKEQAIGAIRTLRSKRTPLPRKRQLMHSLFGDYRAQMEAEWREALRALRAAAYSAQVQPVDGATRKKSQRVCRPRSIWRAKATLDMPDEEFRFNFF
# UniProt P0DMB2: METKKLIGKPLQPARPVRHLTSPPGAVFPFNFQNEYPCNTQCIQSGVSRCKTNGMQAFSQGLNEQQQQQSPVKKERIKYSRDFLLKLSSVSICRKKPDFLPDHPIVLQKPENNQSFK
# UniProt Q13137: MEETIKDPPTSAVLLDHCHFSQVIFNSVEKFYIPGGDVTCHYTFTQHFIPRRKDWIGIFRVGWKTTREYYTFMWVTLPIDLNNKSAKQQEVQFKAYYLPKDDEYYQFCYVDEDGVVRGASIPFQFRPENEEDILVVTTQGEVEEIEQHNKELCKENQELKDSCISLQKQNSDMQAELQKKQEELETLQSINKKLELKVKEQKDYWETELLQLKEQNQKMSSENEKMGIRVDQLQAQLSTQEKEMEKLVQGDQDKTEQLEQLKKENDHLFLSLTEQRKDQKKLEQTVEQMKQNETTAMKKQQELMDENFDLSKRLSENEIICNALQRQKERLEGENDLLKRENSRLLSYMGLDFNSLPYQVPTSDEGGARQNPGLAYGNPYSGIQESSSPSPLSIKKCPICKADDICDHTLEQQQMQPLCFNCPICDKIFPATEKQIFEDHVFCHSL
# UniProt Q13901: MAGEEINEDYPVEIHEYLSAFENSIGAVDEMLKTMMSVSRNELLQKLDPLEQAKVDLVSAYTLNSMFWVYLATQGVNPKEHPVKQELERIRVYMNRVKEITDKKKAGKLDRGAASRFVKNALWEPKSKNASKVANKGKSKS
# UniProt O60566, whole entry, looked up: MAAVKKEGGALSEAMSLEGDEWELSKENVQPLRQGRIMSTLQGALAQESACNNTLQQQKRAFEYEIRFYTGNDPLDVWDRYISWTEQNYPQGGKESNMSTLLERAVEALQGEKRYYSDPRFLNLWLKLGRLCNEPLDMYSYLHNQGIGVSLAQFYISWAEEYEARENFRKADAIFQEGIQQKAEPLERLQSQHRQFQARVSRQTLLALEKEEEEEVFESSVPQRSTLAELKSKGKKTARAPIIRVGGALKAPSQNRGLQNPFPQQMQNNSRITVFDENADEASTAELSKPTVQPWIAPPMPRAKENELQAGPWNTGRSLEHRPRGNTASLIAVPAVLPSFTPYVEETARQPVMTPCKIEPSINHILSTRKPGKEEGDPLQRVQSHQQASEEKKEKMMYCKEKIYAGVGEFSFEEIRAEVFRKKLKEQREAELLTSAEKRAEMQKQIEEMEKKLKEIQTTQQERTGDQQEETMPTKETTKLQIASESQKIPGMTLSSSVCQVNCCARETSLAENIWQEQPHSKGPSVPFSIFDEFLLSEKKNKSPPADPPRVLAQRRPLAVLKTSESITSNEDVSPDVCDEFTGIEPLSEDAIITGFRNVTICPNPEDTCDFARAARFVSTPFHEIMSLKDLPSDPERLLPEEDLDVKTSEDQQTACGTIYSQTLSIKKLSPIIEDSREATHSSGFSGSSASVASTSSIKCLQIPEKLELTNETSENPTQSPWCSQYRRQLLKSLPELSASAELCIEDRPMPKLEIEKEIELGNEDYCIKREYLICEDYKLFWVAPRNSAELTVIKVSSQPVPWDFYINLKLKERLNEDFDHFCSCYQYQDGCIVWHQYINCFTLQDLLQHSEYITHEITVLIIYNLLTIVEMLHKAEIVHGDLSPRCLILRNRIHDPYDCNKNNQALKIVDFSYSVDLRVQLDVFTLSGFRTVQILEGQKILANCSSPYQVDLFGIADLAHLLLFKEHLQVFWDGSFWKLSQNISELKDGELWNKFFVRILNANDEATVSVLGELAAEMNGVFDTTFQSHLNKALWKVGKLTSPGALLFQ
# UniProt Q96F05: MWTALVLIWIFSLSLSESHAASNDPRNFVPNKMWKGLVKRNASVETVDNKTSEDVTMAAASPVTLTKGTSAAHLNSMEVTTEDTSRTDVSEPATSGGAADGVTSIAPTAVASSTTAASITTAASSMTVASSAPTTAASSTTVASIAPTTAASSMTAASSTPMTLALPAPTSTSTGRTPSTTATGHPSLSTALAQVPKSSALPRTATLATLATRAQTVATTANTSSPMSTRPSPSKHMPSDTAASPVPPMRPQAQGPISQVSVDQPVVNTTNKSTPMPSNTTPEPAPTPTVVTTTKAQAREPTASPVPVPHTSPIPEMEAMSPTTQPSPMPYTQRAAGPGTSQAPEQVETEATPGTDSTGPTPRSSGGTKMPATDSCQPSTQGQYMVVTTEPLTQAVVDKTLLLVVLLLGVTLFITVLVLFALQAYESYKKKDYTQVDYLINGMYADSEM
# UniProt Q0VDD7: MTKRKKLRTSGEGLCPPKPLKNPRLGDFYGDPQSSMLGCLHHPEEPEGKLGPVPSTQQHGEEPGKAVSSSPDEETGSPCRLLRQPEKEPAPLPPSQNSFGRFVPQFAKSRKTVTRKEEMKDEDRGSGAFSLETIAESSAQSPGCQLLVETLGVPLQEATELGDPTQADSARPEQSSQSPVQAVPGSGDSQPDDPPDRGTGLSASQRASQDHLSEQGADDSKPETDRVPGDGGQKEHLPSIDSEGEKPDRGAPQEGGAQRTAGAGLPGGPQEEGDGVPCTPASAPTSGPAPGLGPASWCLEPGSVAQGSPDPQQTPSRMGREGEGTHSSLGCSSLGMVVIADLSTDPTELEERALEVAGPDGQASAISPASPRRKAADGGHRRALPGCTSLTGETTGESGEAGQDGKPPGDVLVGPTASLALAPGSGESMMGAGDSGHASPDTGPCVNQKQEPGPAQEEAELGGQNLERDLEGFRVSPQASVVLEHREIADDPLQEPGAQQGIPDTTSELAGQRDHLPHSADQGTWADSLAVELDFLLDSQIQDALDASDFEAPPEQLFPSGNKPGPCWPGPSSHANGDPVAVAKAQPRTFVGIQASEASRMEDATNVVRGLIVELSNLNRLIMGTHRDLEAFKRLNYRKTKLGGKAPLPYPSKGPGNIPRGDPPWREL
# UniProt P00915: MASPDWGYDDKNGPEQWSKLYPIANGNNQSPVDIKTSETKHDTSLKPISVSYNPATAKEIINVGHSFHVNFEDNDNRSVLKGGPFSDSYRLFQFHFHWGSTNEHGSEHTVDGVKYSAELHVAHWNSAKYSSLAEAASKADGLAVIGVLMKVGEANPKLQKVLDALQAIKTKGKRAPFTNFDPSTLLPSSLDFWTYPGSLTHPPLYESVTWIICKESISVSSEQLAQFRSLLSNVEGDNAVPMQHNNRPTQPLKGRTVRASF
# UniProt Q96LT7: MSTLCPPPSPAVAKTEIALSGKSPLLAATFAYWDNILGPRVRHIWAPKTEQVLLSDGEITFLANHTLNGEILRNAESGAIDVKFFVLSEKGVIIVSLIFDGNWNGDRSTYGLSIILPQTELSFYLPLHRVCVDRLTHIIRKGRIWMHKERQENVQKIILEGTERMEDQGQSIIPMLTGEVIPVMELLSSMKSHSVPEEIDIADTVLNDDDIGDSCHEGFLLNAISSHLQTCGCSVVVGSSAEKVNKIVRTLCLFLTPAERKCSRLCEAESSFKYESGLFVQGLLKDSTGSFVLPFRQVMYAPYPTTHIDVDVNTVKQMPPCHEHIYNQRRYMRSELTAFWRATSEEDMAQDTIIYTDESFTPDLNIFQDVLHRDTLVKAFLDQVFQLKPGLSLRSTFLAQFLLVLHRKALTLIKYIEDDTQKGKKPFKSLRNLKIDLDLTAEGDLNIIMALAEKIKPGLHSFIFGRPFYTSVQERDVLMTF
# UniProt Q96LW7: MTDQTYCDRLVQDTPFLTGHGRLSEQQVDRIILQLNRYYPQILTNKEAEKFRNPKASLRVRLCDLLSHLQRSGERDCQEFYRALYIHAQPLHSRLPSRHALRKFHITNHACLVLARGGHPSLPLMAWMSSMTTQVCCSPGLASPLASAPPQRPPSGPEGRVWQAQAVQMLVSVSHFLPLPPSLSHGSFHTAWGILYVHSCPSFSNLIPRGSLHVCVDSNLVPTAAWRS
# UniProt Q6P5X5: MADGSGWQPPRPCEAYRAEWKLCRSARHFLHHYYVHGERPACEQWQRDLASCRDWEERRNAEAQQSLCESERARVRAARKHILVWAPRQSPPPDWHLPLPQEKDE
# The other results are listed elsewhere or left out. Residues, ends and D or L forms follow the SMILES beside them. *: point of attachment. Cbz = O=C(OCc1ccccc1)*
# How the values were obtained:
# Experiment in all cases: log2 fold change, soluble protein after heating vs DMSO (PISA); higher = thermal stabilisation; K562 cells, 10 uM, 30 min; active = over 0.2 and 3.5 SD of the protein, either way, in both replicates (recomputed)
# IRAK-1-4 Inhibitor I = compound: C1COCCN1CCN2C3=CC=CC=C3N=C2NC(=O)C4=CC(=CC=C4)[N+](=O)[O-] [IRAK-1-4 Inhibitor I]
# Procedure, shortened: (§1)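 Values are thermal stability changes relative to control samples and are taken from duplicates. They are stated as log2 fold changes. Before quantification by TMTpro 16plex LC-MS/MS with equalised channel sums, K562 cells at 2×10^6 cells/mL were treated with 10 μM compound for 30 min, heated in aliquots for 3 min across 48°C-58°C, pooled, extracted in PBS with 0.5% NP-40 at 4°C, and centrifuged at 21,000xg for 90 min to give the soluble supernatant.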
# ibrutinib = compound: C=CC(=O)N1CCC[C@@H](n2nc(-c3ccc(Oc4ccccc4)cc3)c3c(N)ncnc32)C1 [ibrutinib]
# Procedure, shortened: as §1
# [1] = compound: CC(=O)c1cnc2ccc(-c3cc(Cl)c(O)c(Cl)c3)nc2c1N[C@H]1CC[C@H](CN(C)C)CC1
# Procedure, shortened: as §1
# ralimetinib = compound: CC(C)(C)Cn1c(N)nc2ccc(-c3[nH]c(C(C)(C)C)nc3-c3ccc(F)cc3)nc21 [ralimetinib]
# Procedure, shortened: as §1
# [2] = compound: CC(C)(O)CC(=O)NCCn1ccc2ncnc(Nc3ccc(Oc4cccc(C(F)(F)F)c4)c(Cl)c3)c21
# Procedure, shortened: as §1
# [3] = compound: CC(C)C[C@@H](C=O)NC(=O)[C@H](CC(C)C)NC(=O)[C@H](CC(C)C)NC(=O)OCc1ccccc1
# Procedure, shortened: as §1
# pinometostat = compound: CC(C)N(C[C@H]1O[C@@H](n2cnc3c(N)ncnc32)[C@H](O)[C@@H]1O)[C@H]1C[C@@H](CCc2nc3cc(C(C)(C)C)ccc3[nH]2)C1 [pinometostat]
# Procedure, shortened: as §1
# [4] = compound: CC1=C(C(CC(=O)N1)C2=CC=C(C=C2)C(F)(F)F)C(=O)NC3=C(C=C4C(=C3)C=NN4)F
# Procedure, shortened: as §1
# [5] = compound: CC1=C(C2=C(C=C1)C(=O)C3=CC=CC=C3N2CCCN)C
# Procedure, shortened: as §1
# [6] = compound: CC1=C(C=C(C=C1)NC(=O)C2=CC(=CC=C2)C(C)(C)C#N)NC3=CC4=C(C=C3)N=CN(C4=O)C
# Procedure, shortened: as §1
# [7] = compound: CC1=C(C=C(C=C1)NC(=O)C2=CC(=CC=C2)N(C)C)NC(=O)C3=CC=C(C=C3)O
# Procedure, shortened: as §1
# [8] = compound: CC1=CC=C(C=C1)SC2=C3C=C(SC3=CN=C2)C(=O)N
# Procedure, shortened: as §1
# [9] = compound: CC1=NC(=CC=C1)C2=C(N=C(N2)C(C)(C)C)C3=CC4=NC=CN=C4C=C3
# Procedure, shortened: as §1
# Nexturastat A = compound: CCCCN(Cc1ccc(C(=O)NO)cc1)C(=O)Nc1ccccc1 [Nexturastat A]
# Procedure, shortened: as §1
# vemurafenib = compound: CCCS(=O)(=O)Nc1ccc(F)c(C(=O)c2c[nH]c3ncc(-c4ccc(Cl)cc4)cc23)c1F [vemurafenib]
# Procedure, shortened: as §1
# [10] = compound: CCCS(=O)(=O)Nc1ccc(F)c(C(=O)c2c[nH]c3ncc(Cl)cc23)c1F
# Procedure, shortened: as §1
# [11] = compound: CCCc1cc(C)[nH]c(=O)c1CNC(=O)c1cc(-c2ccnc(N3CCN(C)CC3)c2)cc2c1cnn2C(C)C
# Procedure, shortened: as §1
# barasertib = compound: CCN(CCCOc1ccc2c(Nc3cc(CC(=O)Nc4cccc(F)c4)[nH]n3)ncnc2c1)CCOP(=O)(O)O [barasertib]
# Procedure, shortened: as §1
# [12] = compound: CC(C)C1=C2N=C(C=C(N2N=C1)NCC3=CC=CC=C3)NCCCCCCN
# Procedure, shortened: as §1
# givinostat = compound: CCN(CC)Cc1ccc2cc(COC(=O)Nc3ccc(C(=O)NO)cc3)ccc2c1 [givinostat]
# Procedure, shortened: as §1
Target,log2 fold change (IRAK-1-4 Inhibitor I),log2 fold change (ibrutinib),log2 fold change [1],log2 fold change (ralimetinib),log2 fold change [2],log2 fold change [3],log2 fold change (pinometostat),log2 fold change [4],log2 fold change [5],log2 fold change [6],log2 fold change [7],log2 fold change [8],log2 fold change [9],log2 fold change (Nexturastat A),log2 fold change (vemurafenib),log2 fold change [10],log2 fold change [11],log2 fold change (barasertib),log2 fold change [12],log2 fold change (givinostat)
C3orf38 (UniProt Q5JPI3),inactive: -0.165,inactive: -0.064,inactive: -0.072,inactive: 0,inactive: -0.035,inactive: 0.077,inactive: -0.121,inactive: 0.02,inactive: -0.086,inactive: -0.135,inactive: -0.026,inactive: 0.004,inactive: 0.14,inactive: 0.033,inactive: 0.113,inactive: 0.02,inactive: 0.026,inactive: -0.312,–,–
C12orf65 (UniProt Q9H3J6),inactive: 0.016,inactive: 0.16,inactive: 0.101,inactive: 0.295,–,inactive: -0.052,inactive: 0.162,inactive: 0.007,–,inactive: -0.13,inactive: 0.044,–,inactive: -0.115,–,inactive: -0.152,–,inactive: 0.076,inactive: -0.206,inactive: 0.074,inactive: 0.03
CA13 (UniProt Q8N1Q1),inactive: 0.021,inactive: -0.116,inactive: 0.087,inactive: 0.023,inactive: -0.01,inactive: 0.011,inactive: -0.145,inactive: 0.029,inactive: 0.049,inactive: -0.078,inactive: -0.075,–,inactive: 0.069,inactive: -0.037,inactive: -0.015,–,inactive: 0.081,inactive: -0.057,inactive: 0.113,inactive: -0.022
CAMSAP1 isoform 3 (UniProt Q5T5Y3),inactive: -0.076,inactive: -0.069,inactive: -0.29,inactive: -0.031,inactive: -0.062,inactive: 0.031,inactive: 0.121,–,inactive: 0.108,inactive: 0.03,inactive: -0.009,inactive: -0.02,inactive: -0.101,inactive: 0.168,inactive: -0.274,inactive: 0.042,inactive: -0.19,inactive: 0.077,inactive: -0.078,inactive: 0.151
C8orf33 isoform 2 (UniProt Q9H7E9),inactive: -0.363,inactive: 0.088,inactive: 0.088,inactive: 0.132,inactive: 0.139,inactive: 0.146,inactive: 0.769,inactive: 0.078,inactive: -0.568,inactive: 0.02,inactive: -0.275,inactive: -0.183,inactive: -0.364,inactive: 0.3,inactive: -0.139,inactive: 0.026,inactive: 0.221,inactive: -0.049,–,–
C8orf88 (UniProt P0DMB2),inactive: 0.051,inactive: -0.063,inactive: -0.567,inactive: 0.189,inactive: -0.031,inactive: -0.178,inactive: 0.116,–,–,–,inactive: 0.034,inactive: -0.169,inactive: -0.075,inactive: -0.08,inactive: -0.182,inactive: -0.323,inactive: -1.36,inactive: 0.032,inactive: 0.026,inactive: 0.018
CALCOCO2 isoform 4 (UniProt Q13137),inactive: 0.004,inactive: -0.016,inactive: -0.09,inactive: 0.045,inactive: -0.005,inactive: 0.115,inactive: 0.054,–,inactive: -0.065,inactive: -0.005,inactive: -0.008,inactive: 0.006,inactive: 0.012,inactive: 0.019,inactive: 0.012,inactive: -0.037,inactive: -0.052,inactive: 0.022,active: -0.599,inactive: 0
C1D (UniProt Q13901),inactive: 0.013,inactive: -0.041,inactive: -0.081,inactive: 0.016,inactive: -0.047,inactive: 0.055,inactive: -0.081,–,inactive: -0.004,inactive: 0.058,inactive: 0.002,inactive: -0.015,inactive: -0.045,inactive: -0.053,inactive: -0.046,inactive: -0.175,inactive: -0.019,inactive: 0.104,inactive: 0.072,inactive: -0.002
BUB1B isoform 3 (UniProt O60566),inactive: -0.092,inactive: -0.039,inactive: -0.023,inactive: 0.106,inactive: -0.089,inactive: 0.09,inactive: 0.11,–,inactive: 0.017,inactive: 0.004,inactive: -0.031,inactive: 0.059,inactive: -0.014,inactive: 0.087,inactive: 0.058,inactive: 0.14,inactive: 0.043,inactive: 0.034,inactive: -0.098,inactive: 0.118
C11orf24 (UniProt Q96F05),inactive: 0.164,inactive: -0.061,inactive: -0.304,inactive: 0.118,inactive: 0.194,inactive: 0.026,inactive: 0.148,–,–,inactive: 0.024,inactive: 0.011,–,inactive: -0.185,inactive: -0.059,–,–,–,inactive: -0.004,inactive: 0.324,inactive: -0.339
C19orf57 (UniProt Q0VDD7),inactive: 0.003,inactive: -0.075,inactive: -0.042,inactive: -0.016,–,inactive: 0.052,inactive: -0.05,–,–,–,inactive: 0.065,–,inactive: -0.008,–,inactive: -0.035,–,–,inactive: -0.066,inactive: -0.025,inactive: 0.06
CA1 (UniProt P00915),inactive: 0.068,inactive: -0.02,inactive: 0.003,inactive: 0.017,inactive: -0.031,inactive: -0.011,inactive: -0.006,–,inactive: -0.043,inactive: -0.028,inactive: -0.008,inactive: 0.03,inactive: 0.014,inactive: -0.051,inactive: 0.048,inactive: 0.016,inactive: -0.039,inactive: 0.008,inactive: 0.119,inactive: -0.021
C9orf72 (UniProt Q96LT7),inactive: 0.016,inactive: 0.022,inactive: -0.001,inactive: 0.035,inactive: -0.051,inactive: -0.019,inactive: 0.135,–,inactive: 0.048,inactive: 0.108,inactive: -0.009,inactive: 0.027,inactive: -0.014,inactive: -0.102,inactive: -0.139,inactive: -0.038,inactive: 0.007,inactive: 0.042,inactive: 0.029,inactive: -0.022
C19orf53 (UniProt Q9UNZ5),inactive: -0.136,inactive: 0.031,inactive: 0.12,inactive: 0.201,inactive: 0.043,inactive: 0.126,inactive: 0.32,–,inactive: -0.546,inactive: 0.056,inactive: 0.016,inactive: -0.065,inactive: -0.196,inactive: 0.184,inactive: -0.189,inactive: -0.044,inactive: 0.146,inactive: -0.096,inactive: 0.013,inactive: 0.021
CARD19 isoform 2 (UniProt Q96LW7),inactive: 0.01,inactive: -0.002,inactive: -0.02,inactive: -0.049,inactive: -0.181,inactive: 0.128,inactive: 0.063,–,inactive: 0.106,–,inactive: -0.064,–,inactive: -0.036,inactive: 0.04,inactive: -0.036,–,inactive: -0.012,inactive: -0.277,–,–
BTAF1 (UniProt O14981),inactive: 0.021,inactive: 0.029,inactive: 0.022,inactive: -0.043,inactive: -0.168,inactive: 0.01,inactive: -0.011,–,inactive: -0.087,inactive: -0.033,inactive: 0.07,inactive: -0.035,inactive: 0.011,inactive: -0.064,inactive: -0.003,inactive: 0.041,inactive: -0.018,inactive: 0.038,inactive: -0.131,inactive: 0.009
C22orf39 (UniProt Q6P5X5),inactive: 0.12,inactive: 0.033,inactive: -0.069,inactive: -0.104,inactive: 0.018,inactive: 0.126,inactive: 0.035,–,inactive: 0.213,inactive: -0.033,inactive: 0.059,inactive: -0.058,inactive: -0.008,inactive: -0.024,–,inactive: 0.205,inactive: 0.017,inactive: -0.042,active: -0.587,inactive: 0.044
CAD (UniProt P27708),inactive: -0.064,inactive: 0.008,active: -0.402,inactive: -0.06,inactive: -0.168,inactive: 0.021,inactive: 0.028,–,active: 0.272,inactive: -0.047,inactive: -0.009,inactive: 0.027,inactive: 0.012,inactive: 0,inactive: -0.041,inactive: -0.018,inactive: -0.078,inactive: 0.002,inactive: 0.029,inactive: 0.008

# Taken from above.
# Under log2 fold change [4], C3orf38 (UniProt Q5JPI3) has the entry inactive: 0.02
# Under log2 fold change (barasertib), C12orf65 (UniProt Q9H3J6) has the entry inactive: -0.206
